# Library screening results

Sequences of proteins named here, by UniProt entry; tags and fusion partners are left off.
UniProt E9BF75, entry or part of it: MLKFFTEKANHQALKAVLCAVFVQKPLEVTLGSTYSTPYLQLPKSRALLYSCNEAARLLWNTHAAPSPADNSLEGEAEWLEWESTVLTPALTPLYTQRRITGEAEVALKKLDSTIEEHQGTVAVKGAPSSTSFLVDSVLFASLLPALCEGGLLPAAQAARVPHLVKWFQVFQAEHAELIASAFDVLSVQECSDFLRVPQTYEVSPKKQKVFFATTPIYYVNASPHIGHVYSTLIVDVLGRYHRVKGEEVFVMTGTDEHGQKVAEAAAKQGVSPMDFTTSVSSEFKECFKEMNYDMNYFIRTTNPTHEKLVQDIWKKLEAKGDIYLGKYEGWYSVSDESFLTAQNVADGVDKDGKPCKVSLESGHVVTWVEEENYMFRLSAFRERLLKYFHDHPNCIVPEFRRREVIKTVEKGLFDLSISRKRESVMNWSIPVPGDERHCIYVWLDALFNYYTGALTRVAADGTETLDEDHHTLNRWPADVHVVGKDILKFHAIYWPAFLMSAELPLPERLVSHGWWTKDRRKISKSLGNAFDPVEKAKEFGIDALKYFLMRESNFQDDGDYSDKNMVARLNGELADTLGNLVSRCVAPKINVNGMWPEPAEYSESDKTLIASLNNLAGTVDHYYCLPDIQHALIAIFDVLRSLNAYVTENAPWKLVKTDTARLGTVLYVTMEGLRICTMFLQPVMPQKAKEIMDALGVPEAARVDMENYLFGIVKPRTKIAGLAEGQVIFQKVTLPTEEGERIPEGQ

Results are percentages, as filed.
How 0% and 100% were set is not recorded. Most values in the screen are low, and negative values occur.
This is an unselected part of the compounds tested.

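Methionyl-tRNA synthetase (putative), Leishmania donovani (UniProt E9BF75). Primary screen of methionyl-tRNA synthetase; the read-out is not stated. The test concentration is not given. The values are filed as inhibition. Of about 68,000 compounds tested this way, about 24 (0.035%) reached 50% or more in at least one test.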

structure | inhibition
CC(C)N1CC(NC(=O)c2ccc(Cl)s2)CC1=O (stereo not drawn) | 7.94
Cc1cc(C)nc(Nc2cc(C)nc(C3CCN(C(=O)CO)C3)n2)n1 (stereo not drawn) | 16.82
NC(=O)CC1CCCCN1C(=O)c1ccc2cc[nH]c2c1 (stereo not drawn) | 8.362
O=C(c1ccn(-c2ccc(F)cc2)n1)N(CCO)Cc1cccnc1 | 0.7792
CCOCCCC(=O)NCC(c1ccccc1)N1CCc2sccc2C1 (stereo not drawn) | 10.65
O=C(CO)N1CCCn2nnc(Cn3cccn3)c2C1 | 5.839
CN(C)C(C(=O)NCC1(O)CCCCC1)c1cccc(F)c1 (stereo not drawn) | 12.73
COc1cccc2c(=O)n(Cc3nc(C)cc(O)n3)cnc12 | -3.662
COc1c(CNCc2ccc(N3CCOCC3)nc2)c(C)nn1C | 4.416
Cc1ccc2nc(CNCCCN3CCCC3=O)cc(O)c2c1 | -1.875
CCOCCNC(=O)C(CCSC)NC(=O)c1ccc2ccccc2n1 (stereo not drawn) | 0.8021
O=C(Cc1ccccc1)N1CC(=O)N(Cc2ccco2)CC(O)C1 (stereo not drawn) | 9.041
O=C(CC1CCCO1)Nc1ccc2c(ccn2CCN2CCOCC2)c1 (stereo not drawn) | 4.032
CC(C)c1ncc(CN2CCC(CO)C2)cn1 (stereo not drawn) | 3.236
Cc1ccc(C2CCCCCN2Cc2cn(C)nc2C)cc1 (stereo not drawn) | 20.59
OC[C@H]1CN(C2Cc3ccccc3C2)C[C@H]1CN1CCC(O)CC1 | 12.18
Cc1cc(C)nc(Nc2cccc(C3CCCN(C)C3)n2)n1 (stereo not drawn) | 15.41
Cc1cc(SCC(=O)O)nc2nn(CC(F)F)c(C)c12 | 8.919
CC1CCN(C(=O)Cc2ccc(S(=O)(=O)C(F)F)cc2)CC1 | 7.971
O=C1CCCCN1Cc1cccc(OC(F)F)c1 | 5.962
O=C([C@@H]1COC[C@H]2CN(c3ccncn3)C[C@H]21)N1CCCC1 | 8.904
CCN1Cc2c(C(=O)NC(C)C)ncn2-c2ccccc2S1(=O)=O | 7.302
CC(=O)NCC(=O)N1CCC2(CC1)NC(=O)CC2c1cnn(C)c1 (stereo not drawn) | 13.42
CN(C)c1cccc(C2CCCN2CCCN2CCOC2=O)c1 (stereo not drawn) | 20.36
COCC1CCN(CCCc2cn[nH]c2)CC1 | 4.178
CN(C(=O)CN1CCC(c2cc3ccccc3[nH]2)CC1)C1CC1 | 5.645
CN(Cc1nc2ccccc2n1C)CC1CCCN1c1cccnn1 (stereo not drawn) | 31.96
Cc1noc([C@@H]2C[C@H]3OCC[C@H]3N(Cc3ccoc3)C2)n1 | 9.206
CCCOC(C)Cn1ccc2[nH]c(=O)c(C#N)cc2c1=O (stereo not drawn) | 0
Cc1noc(C)c1-c1ccc(C2CCCN2C(=O)c2cnn(C)c2)nc1 (stereo not drawn) | 21.86
CS(=O)(=O)CCN(CCc1cccc(F)c1)C1CC1 | 7.788
Cc1nc(CN2CCC23CCN(C(=O)c2ccco2)CC3)cs1 | 8.831
CN(C)CCN1C(=O)CCC12CCCN(C(=O)CC1CC1)CC2 (stereo not drawn) | 1.603
CC(C)c1noc(C(C)N2CCN(Cc3noc(C(C)(C)C)n3)CC2)n1 (stereo not drawn) | 19.67
CCC(CO)N(C/C(C)=C/c1ccco1)Cc1ccccn1 (stereo not drawn) | 18.61
c1cc(-c2cncnc2)cc(-c2ccn(CC3CCNC3)n2)c1 (stereo not drawn) | -7.673
CCOc1ccc(CC(CNC(=O)c2ccoc2)C(N)=O)cc1 (stereo not drawn) | 13.19
Cc1csc(CN2CC[C@H]3C[C@H](c4nnc(C)[nH]4)O[C@@H]3C2)n1 | 4.5
CC(C)OCc1ncn2c1CN(Cc1ccc(F)cc1)CCC2 | 20.54
COc1c(CNCC(O)COc2ccc3c(c2)OCO3)c(C)nn1C (stereo not drawn) | 6.806
COc1ccc(OC)c(C2CCN(C(=O)C3CCN(C(C)C)CC3)C2)c1 (stereo not drawn) | 0.2457
Fc1cccc(C2CCCN2Cc2nnnn2C2CC2)c1 (stereo not drawn) | 15.58
COc1ccc(CN2CCCCCC2c2cccs2)c(O)c1 (stereo not drawn) | 14.08
COc1ncc(CN2CCC3(CCCN(CC4CCCCC4)C3)C2)cn1 (stereo not drawn) | 21.32
CC(C)c1ncc2c(n1)CN(CC(=O)Nc1ccncc1)CC2 | 8.659
CCOc1ncccc1C(=O)N1CCCC(c2nncn2C)C1 (stereo not drawn) | 22.65
CCc1nc(C2CCCN2C(=O)c2ccc3c(c2)nc(C)n3C)no1 (stereo not drawn) | 11.89
CC(c1ccc(F)c(F)c1)N1CCN(Cc2nccn2C)CC1 (stereo not drawn) | -1.215
c1ccc(OCc2nc(CNCCn3cccn3)cs2)cc1 | 4.556
O=C(NCC(=O)N1CCc2ccccc2C1)c1ccoc1 | -1.742
CC(C)n1[nH]c(=O)c2c1NC(=O)CC2c1cccnc1 (stereo not drawn) | 5.926
CN1CCC(C)(CNC(=O)c2ccc(SCc3cccnc3)cc2)CC1 | 9.115
NC(=O)NCCC(=O)NCc1cccnc1N1CCc2ccccc2C1 | 13.01
NC(=O)CN1C(=O)CO[C@H]2CN(Cc3ccc(C(F)(F)F)cc3)C[C@H]21 | 12.78
O=C1NC[C@]2(CC[C@@H](C(=O)N3CCC(O)CC3)CC2)Oc2ccccc21 | 17.42
CCN1CCN(C(=O)Cc2ccc(S(=O)(=O)C(F)F)cc2)CC1 | 5.072
CC(C)Cc1ncc2c(n1)CN(c1cc(N)nc(N)n1)C2 | 11.45
Cc1ccc(CN2CC[C@@H](NS(C)(=O)=O)[C@@H]2Cc2ccncc2)o1 | 13.04
COCCS(=O)(=O)Cc1csc(NC(C)=O)n1 | 8.527
COc1ccc(CCNC(=O)C2CC2)c(Cl)c1 | 12.06
CS(=O)(=O)CCN1CCc2c(ncn2C2CC2)C1 | -10.17
Cc1noc(C2CCN(C(=O)CCNS(C)(=O)=O)CC2)n1 | 6.748
CC(C(=O)NC1CC1)S(=O)(=O)Cc1nc(Cc2ccccc2)no1 (stereo not drawn) | 9.415
Cc1c(C(C)NC2CSCCSC2)cnn1-c1ccc(F)cc1F (stereo not drawn) | 6.634
CC(C)N(CC(N)=O)CC(=O)N(C1=CCCCC1)C1CC1 | 6.964
CC1=Nc2c(c(=O)[nH]n2C(C)C)C(c2ccc(F)c(F)c2)S1 (stereo not drawn) | 10.37
Cc1cc(-n2nnc(C(=O)O)c2-c2ccncc2)ccc1F | 4.082
Cc1cccc(C(Nc2nccc(C)n2)C2CC2)n1 (stereo not drawn) | 22.4
O=C(NC(CN1CCCC1)c1ccccc1)c1c(O)cc(F)cc1F (stereo not drawn) | 18.55
Cc1ccc(C(=O)N2Cc3c(CN4CCCCC4)nn(C)c3C2)cc1C | 0.4292
COc1ccc2c(O)c(NC(=O)NCC3CC3)cnc2c1 | 5.822
O=C(O)c1ccnc(SCC(=O)c2ccccc2)c1 | 6.316
c1cc(-c2cnccn2)cc(-c2ccn(CCCN3CCCCC3)n2)c1 | 4.982
Cc1ccccc1CN1CCN(Cc2nccn2C)CC1 | 11.11
CCCNC(=O)CNc1ccccc1OCCC(=O)OC | 20.91

Some entries from above, unchanged:

structure,inhibition
CCOCCNC(=O)C(CCSC)NC(=O)c1ccc2ccccc2n1 (stereo not drawn),0.8021
COCCS(=O)(=O)Cc1csc(NC(C)=O)n1,8.527
O=C(CO)N1CCCn2nnc(Cn3cccn3)c2C1,5.839
Cc1noc(C)c1-c1ccc(C2CCCN2C(=O)c2cnn(C)c2)nc1 (stereo not drawn),21.86
CCN1CCN(C(=O)Cc2ccc(S(=O)(=O)C(F)F)cc2)CC1,5.072
c1cc(-c2cnccn2)cc(-c2ccn(CCCN3CCCCC3)n2)c1,4.982
NC(=O)NCCC(=O)NCc1cccnc1N1CCc2ccccc2C1,13.01
NC(=O)CN1C(=O)CO[C@H]2CN(Cc3ccc(C(F)(F)F)cc3)C[C@H]21,12.78

From ChEMBL document CHEMBL3988442, “University of Dundee, Small-Polar-MMV Screening Library” (2021).